These are yes or no findings as the source states them, for the method shown. In cells and extracts the contact can be indirect. Here binding means that the protein was enriched with, or labelled near, the bait; the list need not be complete. Each block holds one binder with its values, some of them ahead of it.
Columns and labels:
[1] = target: T1, SWC4 (S. pombe) (S. pombe) (UniProt O14308); experiment: affinity purification with mass spectrometry; TAP of baits TAP-tagged at their genes from S. pombe extracts; eluates on 6-18% gels, Coomassie, bands and slices identified by MALDI peptide mapping and LC-MS/MS; common background removed, A-index cut-off 1.75
T1 sequence: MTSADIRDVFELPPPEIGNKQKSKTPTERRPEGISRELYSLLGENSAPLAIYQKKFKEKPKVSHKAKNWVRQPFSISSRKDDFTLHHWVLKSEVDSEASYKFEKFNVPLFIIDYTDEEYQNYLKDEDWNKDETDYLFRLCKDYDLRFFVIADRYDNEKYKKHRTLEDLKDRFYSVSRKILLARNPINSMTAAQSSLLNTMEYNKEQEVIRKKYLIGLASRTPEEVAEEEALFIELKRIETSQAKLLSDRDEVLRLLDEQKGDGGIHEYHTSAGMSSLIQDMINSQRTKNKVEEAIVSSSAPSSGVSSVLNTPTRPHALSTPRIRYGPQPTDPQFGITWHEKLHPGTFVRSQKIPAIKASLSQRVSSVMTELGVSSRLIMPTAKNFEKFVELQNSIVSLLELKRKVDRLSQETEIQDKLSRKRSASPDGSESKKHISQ

Protein sequences, listed by entry. Tags and fused reporters are not part of them.
UniProt Q9HFE8: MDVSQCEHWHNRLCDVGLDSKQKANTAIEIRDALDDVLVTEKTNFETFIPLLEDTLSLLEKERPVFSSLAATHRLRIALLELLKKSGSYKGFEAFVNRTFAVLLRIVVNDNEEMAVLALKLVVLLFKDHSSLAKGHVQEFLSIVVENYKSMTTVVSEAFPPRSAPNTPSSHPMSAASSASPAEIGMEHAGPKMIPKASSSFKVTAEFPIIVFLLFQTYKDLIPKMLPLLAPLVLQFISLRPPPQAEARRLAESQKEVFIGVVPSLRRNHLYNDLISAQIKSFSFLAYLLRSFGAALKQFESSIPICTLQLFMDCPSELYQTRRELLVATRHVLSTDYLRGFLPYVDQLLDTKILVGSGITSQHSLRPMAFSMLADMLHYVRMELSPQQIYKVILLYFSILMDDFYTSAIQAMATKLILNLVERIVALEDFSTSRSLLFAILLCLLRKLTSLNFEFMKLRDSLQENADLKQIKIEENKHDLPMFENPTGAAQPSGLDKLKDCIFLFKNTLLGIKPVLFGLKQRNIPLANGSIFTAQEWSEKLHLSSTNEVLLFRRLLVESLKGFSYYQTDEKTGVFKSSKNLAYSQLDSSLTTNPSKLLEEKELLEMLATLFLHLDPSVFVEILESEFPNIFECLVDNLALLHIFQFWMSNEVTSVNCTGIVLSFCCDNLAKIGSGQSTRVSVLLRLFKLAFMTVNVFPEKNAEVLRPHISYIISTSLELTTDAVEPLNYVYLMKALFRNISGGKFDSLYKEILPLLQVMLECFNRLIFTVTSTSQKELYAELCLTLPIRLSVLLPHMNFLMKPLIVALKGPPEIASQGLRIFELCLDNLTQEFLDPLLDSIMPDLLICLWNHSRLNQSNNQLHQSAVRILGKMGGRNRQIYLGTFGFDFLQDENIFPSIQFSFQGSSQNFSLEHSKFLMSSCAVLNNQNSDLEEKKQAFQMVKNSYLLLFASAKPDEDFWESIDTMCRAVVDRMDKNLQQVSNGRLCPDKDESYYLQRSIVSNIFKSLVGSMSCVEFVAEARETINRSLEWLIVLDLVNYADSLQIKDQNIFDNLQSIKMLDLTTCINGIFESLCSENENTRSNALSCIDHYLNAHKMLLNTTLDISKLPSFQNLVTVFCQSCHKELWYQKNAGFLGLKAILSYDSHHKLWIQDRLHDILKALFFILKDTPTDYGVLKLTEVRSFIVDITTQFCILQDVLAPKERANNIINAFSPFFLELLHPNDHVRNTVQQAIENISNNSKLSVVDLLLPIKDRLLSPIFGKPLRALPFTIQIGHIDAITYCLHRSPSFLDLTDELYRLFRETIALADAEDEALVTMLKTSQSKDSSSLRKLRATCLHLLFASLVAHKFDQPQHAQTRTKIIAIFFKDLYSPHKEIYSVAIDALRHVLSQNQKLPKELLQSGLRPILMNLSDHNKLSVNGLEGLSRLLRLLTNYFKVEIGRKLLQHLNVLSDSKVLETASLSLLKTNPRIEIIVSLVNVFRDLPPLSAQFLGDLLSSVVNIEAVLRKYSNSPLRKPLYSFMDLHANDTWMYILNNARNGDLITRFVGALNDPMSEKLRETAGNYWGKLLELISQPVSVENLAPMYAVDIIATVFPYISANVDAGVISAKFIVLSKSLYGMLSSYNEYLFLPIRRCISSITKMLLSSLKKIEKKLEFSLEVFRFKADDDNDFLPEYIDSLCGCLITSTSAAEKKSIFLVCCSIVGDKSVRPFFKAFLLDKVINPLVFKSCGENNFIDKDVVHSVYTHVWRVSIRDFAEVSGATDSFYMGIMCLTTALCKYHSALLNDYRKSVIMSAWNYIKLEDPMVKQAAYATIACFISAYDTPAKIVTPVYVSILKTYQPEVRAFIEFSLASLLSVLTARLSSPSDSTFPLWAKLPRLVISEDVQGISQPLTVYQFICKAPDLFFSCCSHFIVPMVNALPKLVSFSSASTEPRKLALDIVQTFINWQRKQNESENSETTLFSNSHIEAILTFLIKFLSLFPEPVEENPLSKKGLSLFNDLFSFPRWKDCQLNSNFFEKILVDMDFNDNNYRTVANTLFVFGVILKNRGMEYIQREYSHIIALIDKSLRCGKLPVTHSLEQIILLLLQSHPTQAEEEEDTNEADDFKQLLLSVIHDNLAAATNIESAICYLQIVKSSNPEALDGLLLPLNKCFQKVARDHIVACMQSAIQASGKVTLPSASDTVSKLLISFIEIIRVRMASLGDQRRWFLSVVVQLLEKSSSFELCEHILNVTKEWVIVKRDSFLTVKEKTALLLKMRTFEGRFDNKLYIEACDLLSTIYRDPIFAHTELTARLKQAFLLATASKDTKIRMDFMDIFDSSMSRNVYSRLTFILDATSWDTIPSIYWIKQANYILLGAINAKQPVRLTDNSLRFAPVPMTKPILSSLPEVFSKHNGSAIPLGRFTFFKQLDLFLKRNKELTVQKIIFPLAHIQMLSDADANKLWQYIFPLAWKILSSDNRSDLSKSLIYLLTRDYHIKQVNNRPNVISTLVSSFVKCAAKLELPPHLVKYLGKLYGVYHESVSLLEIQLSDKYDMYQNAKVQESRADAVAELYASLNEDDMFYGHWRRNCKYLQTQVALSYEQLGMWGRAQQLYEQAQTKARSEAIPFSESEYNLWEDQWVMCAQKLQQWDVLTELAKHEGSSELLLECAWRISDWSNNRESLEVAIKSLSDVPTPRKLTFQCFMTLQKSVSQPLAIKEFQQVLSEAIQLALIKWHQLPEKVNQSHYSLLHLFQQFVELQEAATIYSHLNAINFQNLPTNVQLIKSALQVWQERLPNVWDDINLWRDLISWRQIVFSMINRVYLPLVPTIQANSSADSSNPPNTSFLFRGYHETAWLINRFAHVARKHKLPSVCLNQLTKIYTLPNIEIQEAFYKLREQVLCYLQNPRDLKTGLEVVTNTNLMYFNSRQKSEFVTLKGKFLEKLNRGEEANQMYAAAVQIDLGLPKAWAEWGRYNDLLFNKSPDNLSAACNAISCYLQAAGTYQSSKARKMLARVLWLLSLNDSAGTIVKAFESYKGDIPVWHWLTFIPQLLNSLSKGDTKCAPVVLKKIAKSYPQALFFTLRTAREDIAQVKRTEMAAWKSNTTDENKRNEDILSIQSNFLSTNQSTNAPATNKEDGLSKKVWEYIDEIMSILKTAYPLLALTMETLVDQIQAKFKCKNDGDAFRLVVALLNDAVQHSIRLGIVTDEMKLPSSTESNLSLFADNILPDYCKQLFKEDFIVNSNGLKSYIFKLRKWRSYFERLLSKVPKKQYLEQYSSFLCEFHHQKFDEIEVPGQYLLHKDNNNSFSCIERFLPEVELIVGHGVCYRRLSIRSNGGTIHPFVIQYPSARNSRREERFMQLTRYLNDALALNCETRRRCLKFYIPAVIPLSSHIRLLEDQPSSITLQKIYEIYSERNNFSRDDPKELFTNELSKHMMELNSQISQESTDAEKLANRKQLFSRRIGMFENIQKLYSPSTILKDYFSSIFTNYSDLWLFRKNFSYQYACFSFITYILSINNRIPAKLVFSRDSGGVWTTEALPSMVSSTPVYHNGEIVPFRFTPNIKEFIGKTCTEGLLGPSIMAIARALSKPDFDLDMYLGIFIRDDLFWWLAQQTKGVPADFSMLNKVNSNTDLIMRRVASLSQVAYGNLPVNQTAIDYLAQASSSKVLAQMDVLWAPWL
UniProt Q9C0X6: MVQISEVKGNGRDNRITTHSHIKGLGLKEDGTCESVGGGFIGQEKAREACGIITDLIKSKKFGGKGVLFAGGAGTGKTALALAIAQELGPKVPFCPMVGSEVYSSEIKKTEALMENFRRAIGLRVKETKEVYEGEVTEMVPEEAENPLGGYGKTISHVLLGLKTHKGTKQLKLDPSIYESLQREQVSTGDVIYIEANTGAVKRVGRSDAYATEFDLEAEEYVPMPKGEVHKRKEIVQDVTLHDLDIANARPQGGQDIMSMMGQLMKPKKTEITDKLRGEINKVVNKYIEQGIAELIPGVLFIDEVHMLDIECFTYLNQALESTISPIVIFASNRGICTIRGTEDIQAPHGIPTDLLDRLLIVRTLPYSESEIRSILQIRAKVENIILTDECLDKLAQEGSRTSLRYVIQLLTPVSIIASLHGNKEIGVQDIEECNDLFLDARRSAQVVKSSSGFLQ

[2] = target: Tra1 (S. pombe) (S. pombe) (UniProt Q9HFE8); experiment: as above
[3] = target: T2, YAF9 (S. pombe) (S. pombe) (UniProt Q10319); experiment: as above
T2 sequence: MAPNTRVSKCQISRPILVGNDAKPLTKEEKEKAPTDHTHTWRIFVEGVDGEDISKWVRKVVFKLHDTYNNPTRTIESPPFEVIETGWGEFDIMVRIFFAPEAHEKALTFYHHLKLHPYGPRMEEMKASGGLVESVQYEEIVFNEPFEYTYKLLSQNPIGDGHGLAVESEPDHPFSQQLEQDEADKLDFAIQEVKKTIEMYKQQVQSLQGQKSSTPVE

[4] = target: RVB1 (S. pombe) (S. pombe) (UniProt Q9C0X6); experiment: as above
Sc_Tos4p (S. cerevisiae) = target: T3, Sc_Tos4p (S. cerevisiae) (UniProt Q06266); experiment: affinity purification with mass spectrometry; TAP of baits TAP-tagged at their genes from S. cerevisiae extracts; eluates on 6-18% gels, Coomassie, bands and slices identified by MALDI peptide mapping and LC-MS/MS; common background removed, A-index cut-off 1.75
T3 sequence: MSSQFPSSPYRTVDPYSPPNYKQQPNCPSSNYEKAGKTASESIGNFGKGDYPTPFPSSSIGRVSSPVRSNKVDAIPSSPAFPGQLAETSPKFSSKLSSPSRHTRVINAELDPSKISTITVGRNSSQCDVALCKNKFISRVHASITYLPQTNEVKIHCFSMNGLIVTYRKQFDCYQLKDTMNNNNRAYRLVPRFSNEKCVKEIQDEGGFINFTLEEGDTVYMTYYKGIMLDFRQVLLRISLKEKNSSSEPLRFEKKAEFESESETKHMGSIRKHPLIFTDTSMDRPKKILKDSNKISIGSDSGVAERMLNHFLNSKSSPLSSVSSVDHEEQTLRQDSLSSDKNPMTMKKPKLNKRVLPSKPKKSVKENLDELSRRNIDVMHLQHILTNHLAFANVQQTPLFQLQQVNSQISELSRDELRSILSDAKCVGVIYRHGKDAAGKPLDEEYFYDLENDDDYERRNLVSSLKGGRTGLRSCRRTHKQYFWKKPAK

binding (Sc_Tos4p (S. cerevisiae)): binds
B3: Sc_Set3 (protein, UniProt P36124 1-751)
chain: MSVPNSKEQSLLDDASTLLLFSKGKKRAEEASKIGSKTDTIEHDESHEREKKGAIEMAAAALATASTVSLPLKKATEQSAAEAATSTAAKEETENQPQKQPQWPVPDSYIVDPDAGIITCICDLNDDDGFTIQCDHCNRWQHAICYGIKDIGMAPDDYLCNSCDPREVDINLARKIQQERINVKTVEPSSSNNSASNKNNGRDRASSTTISDVGDSFSTDQDNTNHRDKRRKRNPSNNSIDSKNESASVNSSDGLTSMPKKKEHFLSAKDAYGAIYLPLKDNVFKSDLIEPFLNKHMDDNWVIQYPHKTFKSVSIEVKPYADIAYSRTYPGFTKLGVYLKKDCIKGDFIQEILGELDFYKNYLTDPRNHYRIWGTAKRRVIFHSHWPIYIDARLSGNSTRYLRRSCQPNVELVTIKLQDTDNRNDKSSGRKSSRIKFVLRALRDISEDEELYIKWQWDSKHPILKLIKGMTIDSLDDLERYGLINSVETILSNGECGCGNNSKDCYLLKVKRYAQSLYKSVKSRGKMNNRYKLNEILNQYNCKKRREPPILHRLEEKAQNTIERAPILLNNFYRQKFLNRNNGPKIPQKNTIDSTNNPDDIAKPFKFALFAQHSSNISVPKKNETSEKPLIITKSTDYDESHITNIEELPIPVLLPINKTSRQTANDVEESQSKNEHKLSRTPSLSNFNKELSKEAQHSQAKTKEIMTEASVNSRRESTPESIMHLSDFSSSQLHSKKKLSFADYRKKLLK

binding (Sc_Tos4p (S. cerevisiae)): binds
B5: Sc_Sif2 (protein, UniProt P38262 1-535)
chain: MSITSEELNYLIWRYCQEMGHEVSALALQDETRVLEFDEKYKEHIPLGTLVNLVQRGILYTESELMVDSKGDISALNEHHLSEDFNLVQALQIDKEKFPEISSEGRFTLETNSESNKAGEDGASTVERETQEDDTNSIDSSDDLDGFVKILKEIVKLDNIVSSTWNPLDESILAYGEKNSVARLARIVETDQEGKKYWKLTIIAELRHPFALSASSGKTTNQVTCLAWSHDGNSIVTGVENGELRLWNKTGALLNVLNFHRAPIVSVKWNKDGTHIISMDVENVTILWNVISGTVMQHFELKETGGSSINAENHSGDGSLGVDVEWVDDDKFVIPGPKGAIFVYQITEKTPTGKLIGHHGPISVLEFNDTNKLLLSASDDGTLRIWHGGNGNSQNCFYGHSQSIVSASWVGDDKVISCSMDGSVRLWSLKQNTLLALSIVDGVPIFAGRISQDGQKYAVAFMDGQVNVYDLKKLNSKSRSLYGNRDGILNPLPIPLYASYQSSQDNDYIFDLSWNCAGNKISVAYSLQEGSVVAI

binding (Sc_Tos4p (S. cerevisiae)): binds
B6: Sc_Hos2 (protein, UniProt P53096 1-452)
chain: MSGTFSYDVKTKENEPLFEFNSAYSPRVSYHFNSKVSHYHYGVKHPMKPFRLMLTDHLVSSYGLHKIMDLYETRSATRDELLQFHSEDYVNFLSKVSPENANKLPRGTLENFNIGDDCPIFQNLYDYTTLYTGASLDATRKLINNQSDIAINWSGGLHHAKKNSPSGFCYVNDIVLSILNLLRYHPRILYIDIDLHHGDGVQEAFYTTDRVFTLSFHKYNGEFFPGTGDLTEIGCDKGKHFALNVPLEDGIDDDSYINLFKSIVDPLIMTFKPTLIVQQCGADSLGHDRLGCFNLNIKAHGECVKFVKSFGLPMLVVGGGGYTPRNVSRLWTYETGILNDVLLPEDIPEDIPFRDSFGPDYSLYPMLDDLYENKNSKKLLEDIRIRCLENIRYLQGAPSVRMDAECIPTQDISALTEEEDKIIQEMNEETEADSSNRLEEMEKENSGLIAFS

Further lines, the binder ahead of its results:

B1: RVB2 (S. pombe) (protein, UniProt O94692 1-465)
chain: MSISVTSHNDVSKLERIGAHSHIKGIGLNDNLEPKESSQGMVGQVKARRAAGVILKMIQEGRIAGRAILMAGPPSTGKTAIAMGMAQSLGSDTPFVTLSASEVYSLEMSKTEALLQALRKSIGVRIKEETEIIEGEVVEVQIDRSITGGNKQGKLTIRSTDMETVYDLGTKMIDSLTKEKVLAGDVISIDKSVGRVTKLGRSFSRARDYDAMGADTRFVQCPQGEIQKRKEVVHTVSLHDIDVINSRTQGFLALFSGDTGEIKPEVREQINTKVSEWREEGKAEIVPGVLFVDEVHMLDIECFSFFNRALEDDLAPIVIMASNRGITRIRGTNYRSPHGIPVDLLDRMLIISTLPYSHEEVKEILKIRCQEEDVDMEPSALDYLSTIGQETSLRYALLLISSSNQVALKRKSATIEESDIRRVYELFLDQKRSVEYLEEYGKNYITENEWSASGAQDNAVAMQED
binding [1]: binds
binding [2]: binds
binding [3]: binds

B2: ASA1 (S. pombe) (protein, UniProt Q9UTR9 1-368)
chain: MVVPTPFYVLRGHSSSVTSVLFDANEYLYSGDEAGFVICWCLTSMRPKCAWRAHTKTILGMQIVKGGALCTHGRDCRLVTWKIDFNCMTDNFMSLSKLAELQNYGPEASSETEKSSAFISIHSNIVVNSLTFCPFSYSPQSKIVVLCNTLNFEELDVYDDESLYHPQTHKEDCGKRLQTRIQPEESVGKTGSVMSTSVTVTDEKYVLLAAGYESGHVVQYICSLENVKTVTLDFKAVWKMVYAYKSHSQPVLSVEYAGSKLFSTGADDCICLHPTPSSIADDLGSLPHPIFRKTKHCGQQNIRIRSDNKILATAGWDGRGRVYSCQTLAPLAVLKYHSDGINSLAFHPGSNVIALASKDTRISLWKLY
binding [4]: binds
binding [2]: binds

B4: SNT1 (S. cerevisiae) (protein, UniProt P25357 1-1226)
chain: MGYPPPTRRLGDKKRYHYSNNPNRRHPSAVYSKNSFPKSSNNGFVSSPTADNSTNPSVTPSTASVPLPTAAPGSTFGIEAPRPSRYDPSSVSRPSSSSYSSTRKIGSRYNPDVERSSSTTSSTPESMNTSTITHTNTDIGNSRYSRKTMSRYNPQSTSSTNVTHFPSALSNAPPFYVANGSSRRPRSMDDYSPDVTNKLETNNVSSVNNNSPHSYYSRSNKWRSIGTPSRPPFDNHVGNMTTTSNTNSIHQREPFWKANSTTILKSTHSQSSPSLHTKKFHDANKLDKPEASVKVETPSKDETKAISYHDNNFPPRKSVSKPNAPLEPDNIKVGEEDALGKKEVHKSGREIAKEHPTPVKMKEHDELEARAKKVSKINIDGKQDEIWTTAKTVASAVEVSKESQKELTRSVERKESPEIRDYERAYDPKALKTDVTKLTVDNDNKSYEEPLEKVEGCIFPLPKAETRLWELKNQKRNKIISEQKYLLKKAIRNFSEYPFYAQNKLIHQQATGLILTKIISKIKKEEHLKKINLKHDYFDLQKKYEKECEILTKLSENLRKEEIENKRKEHELMEQKRREEGIETEKEKSLRHPSSSSSSRRRNRADFVDDAEMENVLLQIDPNYKHYQAAATIPPLILDPIRKHSYKFCDVNNLVTDKKLWASRILKDASDNFTDHEHSLFLEGYLIHPKKFGKISHYMGGLRSPEECVLHYYRTKKTVNYKQLLIDKNKKRKMSAAAKRRKRKERSNDEEVEVDESKEESTNTIEKEEKSENNAEENVQPVLVQGSEVKGDPLGTPEKVENMIEQRGEEFAGELENAERVNDLKRAHDEVGEESNKSSVIETNNGVQIMDPKGAVQNGYYPEETKELDFSLENALQRKKHKSAPEHKTSYWSVRESQLFPELLKEFGSQWSLISEKLGTKSTTMVRNYYQRNAARNGWKLLVDETDLKRDGTSSESVQQSQILIQPERPNINAYSNIPPQQRPALGYFVGQPTHGHNTSISSIDGSIRPFGPDFHRDTFSKISAPLTTLPPPRLPSIQFPRSEMAEPTVTDLRNRPLDHIDTLADAASSVTNNQNFSNERNAIDIGRKSTTISNLLNNSDRSMKSSFQSASRHEAQLEDTPSMNNIVVQEIKPNITTPRSSSISALLNPVNGNGQSNPDGRPLLPFQHAISQGTPTFPLPAPRTSPISRAPPKFNFSNDPLAALAAVASAPDAMSSFLSKKENNN
binding (Sc_Tos4p (S. cerevisiae)): binds
